Results are given in words; binding and its absence hold for the method and conditions named. Binding seen in cells or lysates may run through a third protein. Some entries that bind do so weakly or less than the wild type.
Target: phosphatase and tensin homolog (PTEN) (human (endogenous in HCE-T)) (UniProt P60484)
Experiment: co-IP; HCE-T cells lysed in immunoprecipitation cell lysis buffer; 10% of lysate as input; IgG as negative control; protein A/G magnetic beads; eluted by boiling; Western blotting

Sequences of proteins named here, by UniProt entry; tags and fusion partners are left off.
UniProt P60484: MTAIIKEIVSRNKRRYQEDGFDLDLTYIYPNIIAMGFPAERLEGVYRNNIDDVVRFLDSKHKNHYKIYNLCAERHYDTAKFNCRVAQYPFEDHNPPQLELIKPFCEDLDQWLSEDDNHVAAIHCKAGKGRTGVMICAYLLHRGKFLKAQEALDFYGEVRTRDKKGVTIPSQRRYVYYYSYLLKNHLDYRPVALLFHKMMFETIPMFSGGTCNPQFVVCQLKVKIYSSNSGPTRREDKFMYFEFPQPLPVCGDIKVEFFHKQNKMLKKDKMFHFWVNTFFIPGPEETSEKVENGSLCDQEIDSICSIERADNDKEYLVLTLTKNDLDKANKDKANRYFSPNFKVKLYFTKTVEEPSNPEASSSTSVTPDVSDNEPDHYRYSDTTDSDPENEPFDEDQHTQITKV
UniProt Q99497: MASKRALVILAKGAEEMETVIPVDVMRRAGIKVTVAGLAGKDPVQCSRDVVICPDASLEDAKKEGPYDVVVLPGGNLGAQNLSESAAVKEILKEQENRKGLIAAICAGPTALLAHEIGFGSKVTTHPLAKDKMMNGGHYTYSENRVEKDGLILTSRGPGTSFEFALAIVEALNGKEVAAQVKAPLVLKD

DJ-1 (from UniProt Q99497 1-189)
binding: binds

— article PMC12248957
